The values that follow come from publication PMC11806408.

By UniProt entry, the sequences of proteins in these tests, tags left out. Residues count along the entry.
UniProt P37023, residues 22-118: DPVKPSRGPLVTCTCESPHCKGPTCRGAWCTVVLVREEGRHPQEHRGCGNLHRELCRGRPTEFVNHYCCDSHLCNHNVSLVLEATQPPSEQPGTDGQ

Experiment [1] deals with T1, BMP‐10 PD (HEK293, from the processed BMP‐10 CPLX) (human) (UniProt O95393).
T1 sequence (chain, N‐glycosylation): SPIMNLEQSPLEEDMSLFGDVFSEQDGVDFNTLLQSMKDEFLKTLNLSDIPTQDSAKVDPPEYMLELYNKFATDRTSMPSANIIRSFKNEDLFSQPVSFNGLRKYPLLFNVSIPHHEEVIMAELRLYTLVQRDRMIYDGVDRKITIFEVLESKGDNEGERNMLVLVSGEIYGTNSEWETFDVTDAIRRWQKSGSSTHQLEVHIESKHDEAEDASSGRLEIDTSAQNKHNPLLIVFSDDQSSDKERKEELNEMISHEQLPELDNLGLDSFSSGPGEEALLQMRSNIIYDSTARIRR
Briefly: SEC; complex co-purified from conditioned medium of HEK293 cells expressing tag‐free full‐length BMP‐10: HiTrap Q twice, then Superose 12 in 1 M NaCl, 20 mM NaH2PO4, pH 7.4; fractions on SDS–PAGE.

In experiment [2] the target is T2, BMPRII ectodomain, human IgG1‐Fc fusion (R&D Systems #811‐BR‐100/CF) (human) (UniProt Q13873).
T2 sequence: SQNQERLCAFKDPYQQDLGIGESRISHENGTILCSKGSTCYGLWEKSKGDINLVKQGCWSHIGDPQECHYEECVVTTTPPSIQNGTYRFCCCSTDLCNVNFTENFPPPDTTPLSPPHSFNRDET
Briefly: SPR; receptor ectodomains immobilised at 500 or 800 RUs on a CM5 chip by amine coupling; analytes 0 to 80 nM, 1:2 serial dilutions, 1× HBS‐EP; 1:1 model with mass transfer; apparent KD = kd/ka; three independent experiments; both purified.

Experiment [3] deals with ALK‐1 ectodomain, human IgG1‐Fc fusion (R&D Systems #370‐AL‐100/CF) (human) (UniProt P37023). The experiment is described as above.
The target of experiment [4] is T3, ENG ectodomain (R&D Systems #1097‐EN‐025/CF) (human) (UniProt P17813).
T3 sequence: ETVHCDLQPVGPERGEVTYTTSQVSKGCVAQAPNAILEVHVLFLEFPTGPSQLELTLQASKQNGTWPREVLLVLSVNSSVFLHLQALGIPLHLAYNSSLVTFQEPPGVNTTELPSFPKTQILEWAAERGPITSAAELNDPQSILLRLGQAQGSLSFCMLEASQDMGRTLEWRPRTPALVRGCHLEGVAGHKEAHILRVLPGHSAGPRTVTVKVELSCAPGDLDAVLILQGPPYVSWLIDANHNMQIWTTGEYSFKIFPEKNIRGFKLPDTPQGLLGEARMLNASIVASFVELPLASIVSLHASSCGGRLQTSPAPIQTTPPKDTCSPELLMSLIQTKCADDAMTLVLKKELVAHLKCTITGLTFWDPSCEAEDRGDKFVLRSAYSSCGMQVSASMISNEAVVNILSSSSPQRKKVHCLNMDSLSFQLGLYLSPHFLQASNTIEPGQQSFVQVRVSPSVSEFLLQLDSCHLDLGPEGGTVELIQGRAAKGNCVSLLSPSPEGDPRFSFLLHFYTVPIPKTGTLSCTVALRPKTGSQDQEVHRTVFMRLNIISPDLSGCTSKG
Described as above.

No constants are given. Whether binding was seen depends on the method and setting. Some entries that bind do so weakly or less than the wild type. For some of these results: Tags and fused reporters may be left off the sequences shown.

B1: BMP‐10 GF (HEK293, from the processed BMP‐10 CPLX) (ligand, UniProt O95393 317-424)
chain: NAKGNYCKRTPLYIDFKEIGWDSWIIAPPGYEAYECRGVCNYPLAEHLTPTKHAIIQALVHLKNSQKASKACCVPTKLEPISILYLDKGVVTYKFKYEGMAVSECGCR
As for B1, the binding entry in experiment [1] was “binds”.

B2: unprocessed BMP‐10 dimer (BMP‐10 I314S/R315I) (ligand, UniProt O95393 22-424)
chain: SPIMNLEQSPLEEDMSLFGDVFSEQDGVDFNTLLQSMKDEFLKTLNLSDIPTQDSAKVDPPEYMLELYNKFATDRTSMPSANIIRSFKNEDLFSQPVSFNGLRKYPLLFNVSIPHHEEVIMAELRLYTLVQRDRMIYDGVDRKITIFEVLESKGDNEGERNMLVLVSGEIYGTNSEWETFDVTDAIRRWQKSGSSTHQLEVHIESKHDEAEDASSGRLEIDTSAQNKHNPLLIVFSDDQSSDKERKEELNEMISHEQLPELDNLGLDSFSSGPGEEALLQMRSNIIYDSTARSIRNAKGNYCKRTPLYIDFKEIGWDSWIIAPPGYEAYECRGVCNYPLAEHLTPTKHAIIQALVHLKNSQKASKACCVPTKLEPISILYLDKGVVTYKFKYEGMAVSECGCR
Regarding B2, the binding entry in experiment [2], in experiment [3] and in experiment [4] was “no binding (tested: 80 nM (highest concentration injected))” in each case.
